Results from PubChem BioAssay AID1347426 (Functional Genomics Laboratory (NCATS/FGL), 2020).
About 1,400 (4.5%) of roughly 31,000 sequences were called active.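 The calls were made as follows: active = median seed-adjusted z-score above 1 or below -1; inactive = the rest.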 The list shows a part of the results.

Assay: Novel Modifiers of Survival Motor Neuron (SMN) Protein: Gene Identification via Genome-wide siRNA Screen;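 also: luminescence tracks full-length SMN protein made from the SMN2 reporter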
Conditions: HEK293T SMN2-luciferase reporter, siRNA knockdown, 72 h; actives lie on both sides
Summary of the method: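 siRNA screen, 10418 genes ×3 siRNAs; 1 pmol/well, lipid reverse transfection into HEK293T SMN2-luc reporter line. 72 h, 37 °C, 5% CO2; ONE-Glo readout. Data: neg-ctrl normalized, log10, MAD; hit = MAD >1.0 or < -1.0.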

Row | Sequence | median seed-adjusted z-score
1 | GAACUUUGCCGGUUCUCAATT against PET112L | inactive: 0.235
2 | GUAUAGGGCCUGUAAGUUUTT against LANCL1 | inactive: 0
3 | CAGCUUCAGUCAGCAGUUATT against FOXO4 | inactive: -0.0576
4 | CAACCAACCUGCAUCUAGATT against TRIM33 | inactive: 0.316
5 | GGAACUGUCUAGUAUCUUATT against IL6ST | inactive: -0.518
6 | ACAAGUUGCCCAACACCAATT against HOXB4 | inactive: 0.149
7 | GCUUUAGACCCACUGCUAATT against STK24 | inactive: 0.0531
8 | GAGCGAAUAUUGGUGUAUUTT against ATP6V0A2 | inactive: 0.236
9 | AAGACAGCCUUGUAGAUGATT against TXNDC13 | inactive: 0.365
10 | GAUCCAACAGGAAAGGUGATT against IGHMBP2 | inactive: -0.271
11 | GGUCAAAUCAGCAAAGGUUTT against RNF25 | inactive: -0.0826
12 | GGUCUUCUGUGGACAUGUATT against BZW2 | inactive: 0.0649
13 | GGACCUUGCAGCAUUGUAATT against CCR4 | inactive: 0
14 | GAGCUAUUGAGAAUCGCAATT against ATP2B1 | inactive: -0.459
15 | GGACCUGAAGGACACCUAUTT against MYL5 | inactive: 0.097
16 | AAAUCUUCGUGAAAGAUCUTT against KLKBL4 | inactive: -0.0132
17 | GGUUCCUACGCAAAAGUCATT against TSSK2 | inactive: -0.064
18 | CUAGAACUCAUGCAACGAATT against DQX1 | inactive: -0.297
19 | GGAUGUUUGCCCAUACUGATT against HCRTR2 | inactive: -0.236
20 | GGAUCGAUAUCAAGAUAUUTT against AVEN | inactive: 0.184
21 | GAAUCUGGACUAUUAGCGATT against OSBPL11 | inactive: 0.535
22 | GCGGAUCUCUGUAGACGAATT against MAPK9 | inactive: 0.211
23 | GGAGAGCAUGUUAAGCGAATT against SKIL | inactive: -0.868
24 | CCAUGACCCUGAUAUCUCATT against CELSR2 | inactive: -0.493
25 | CCAACAUAAUGAUCGAAUUTT against ENPP4 | inactive: 0
26 | GCAGCGGCAUUUGGACAAATT against MKRN3 | inactive: 0.402
27 | GGACCUAAUUUGCUUCAAATT against HINT3 | inactive: 0
28 | GUCACGAAAUGACAGCAUUTT against MPL | inactive: -0.0153
29 | CACUAUCUAUUCCACCUUUTT against HTR1A | inactive: 0
30 | CCUGGAAAGUACUCUAGAATT against PGS1 | active: 1.36

Rewritten as labelled records: entries from further up.
CAACCAACCUGCAUCUAGATT against TRIM33
  median seed-adjusted z-score: inactive: 0.316
GCGGAUCUCUGUAGACGAATT against MAPK9
  median seed-adjusted z-score: inactive: 0.211
